In paper PMC3338534 one finds binding data, which are given here for one molecule.

Amino acid sequences for entries named in this document (tags omitted).
UniProt Q8TCW9: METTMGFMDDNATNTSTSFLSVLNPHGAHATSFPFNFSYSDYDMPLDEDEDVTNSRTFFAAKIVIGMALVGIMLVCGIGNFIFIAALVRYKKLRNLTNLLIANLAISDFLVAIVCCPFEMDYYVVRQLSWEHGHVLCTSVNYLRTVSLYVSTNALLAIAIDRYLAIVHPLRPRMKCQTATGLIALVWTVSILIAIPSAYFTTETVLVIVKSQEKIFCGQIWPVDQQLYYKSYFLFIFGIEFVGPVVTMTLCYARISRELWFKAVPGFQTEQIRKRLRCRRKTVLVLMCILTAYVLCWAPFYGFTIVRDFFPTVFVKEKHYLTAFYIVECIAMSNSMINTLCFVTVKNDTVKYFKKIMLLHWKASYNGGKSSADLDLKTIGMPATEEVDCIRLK

These are yes or no findings as the source states them, for the method shown. In cells and extracts the contact can be indirect. Some binding calls cover weakened binding; strength is not graded here.

The target in experiment [1] is LE-EG-VEGFR1, N-terminal FLAG (human) (UniProt Q8TCW9). Briefly: co-sedimentation; E. coli membrane proteoliposomes treated with thrombin to remove the LE leader, incubated overnight at 4°C with EG-VEGF in PBS, extensively washed and pelleted by centrifugation; pellet analysed by SDS-PAGE and immuno-blot with anti-EG-VEGF antibody; only the binder purified.
Experiment [2] addresses LE-EG-VEGFR1, C-terminal FLAG (human) (UniProt Q8TCW9). The experiment is described as above.

B1: EG-VEGF (Prokineticin 1) (ligand, UniProt P58294 20-105)
chain: AVITGACERDVQCGAGTCCAISLWLRGLRMCTPLGREGEECHPGSHKVPFFRKRKHHTCPCLPNLLCSRFPDGRYRCSMDLKNINF
Regarding B1, the binding entry in experiment [1] and in experiment [2] was “binds” each time.
